Results reported in paper PMC7819943, “Rice protein-binding microarrays: a tool to detect cis-acting elements near promoter regions in rice”.
This is one part of the list.

Amino acid sequences for entries named in this document (tags omitted).
UniProt Q0JBA9, entry or part of it: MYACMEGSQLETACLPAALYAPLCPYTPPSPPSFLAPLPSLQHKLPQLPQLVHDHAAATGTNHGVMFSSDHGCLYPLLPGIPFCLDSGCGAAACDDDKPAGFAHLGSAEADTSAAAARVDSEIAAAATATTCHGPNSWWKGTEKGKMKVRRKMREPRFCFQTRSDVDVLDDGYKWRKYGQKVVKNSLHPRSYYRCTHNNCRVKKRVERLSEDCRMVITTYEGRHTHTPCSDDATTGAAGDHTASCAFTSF

The sequences below were run against OsWRKY34 (Oryza sativa, UniProt Q0JBA9 1-250) (assay: protein-binding microarray (RPBM); PBS, 2% BSA, 51.3 ng/ul salmon testes DNA, 50 uM zinc acetate, 200 nM TF, 25 C, 1 h; high values mean tight binding). Settings: protein: recombinant; tags: N-terminal polyhistidine and DsRed monomer fusion (pET32a); label: CyDye5-dUTP incorporated in the synthesized complementary strand; 3' TTTTT single-stranded linker to array surface; dsDNA, one strand shown.
Procedure, shortened: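 For the binding signal, per-feature fluorescence intensity was read in arbitrary units on an Axon 4000B scanner. Before scanning, a 2% BSA-blocked custom Agilent array made double-stranded with Cy5-dUTP was washed after 1 h at 25 °C with 200 nM protein and 50 µM zinc acetate. The proteins were Ni–NTA-purified transcription factors with N-terminal polyhistidine and DsRed fusions, expressed in E. coli BL21-CodonPlus.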

Row | Sequence | binding signal
1 | TCGCTAGCGCAATCGCCTCGTCGGTATCGACCTTTTTTTTCGGAGTCACCTAGTGCAG | 9230 fluorescence intensity (a.u.)
2 | CTTGCCTCTGTCTCTTTTACCTCAGTTTCGCGTATATCCTCGGAGTCACCTAGTGCAG | 8530 fluorescence intensity (a.u.)
3 | GTTTACCTGATGGCACTCTCTGTATACCCCTGTGGAATTGCGGAGTCACCTAGTGCAG | 8100 fluorescence intensity (a.u.)
4 | GTTTTGGTGACTTTTCCATTTCGAATCATTTATTAACCTCCGGAGTCACCTAGTGCAG | 8180 fluorescence intensity (a.u.)
5 | TTGAGCCTTAGAGTTGGACAGGTTATTGCAGCTGTTCTTGCGGAGTCACCTAGTGCAG | 8550 fluorescence intensity (a.u.)
6 | TATACCATTGAATGCTCACCGGTTTCCTCATATGCCCTTGCGGAGTCACCTAGTGCAG | 8530 fluorescence intensity (a.u.)
7 | TGTTCTCCATTTTTGCAATTTATATCATGATATTTTTTTTCGGAGTCACCTAGTGCAG | 9960 fluorescence intensity (a.u.)
8 | TCCATCCCGGCCCGGCACTGCACACACGCGCGTAGTACCACGGAGTCACCTAGTGCAG | 8130 fluorescence intensity (a.u.)
9 | GGTGGTGGGCATTCCTTTGCATCTCTTGTAGCTAATAAGCCGGAGTCACCTAGTGCAG | 11100 fluorescence intensity (a.u.)
10 | ATCGACCCTTGCGCGGACTCCGCTCTCTTGTTGACCACCTCGGAGTCACCTAGTGCAG | 14600 fluorescence intensity (a.u.)
11 | CGTCAGTGAGACAGCCGCCCACGCCTTAAAGCCCAAACCCCGGAGTCACCTAGTGCAG | 10300 fluorescence intensity (a.u.)
12 | TCCCTGCATGTATTACAGTTAATTTGTGTCAGTTCTTGCTCGGAGTCACCTAGTGCAG | 11400 fluorescence intensity (a.u.)
13 | ACCTCTGTTCTCATTTCCTACAGATTCCACAAGTGCCTGCCGGAGTCACCTAGTGCAG | 9390 fluorescence intensity (a.u.)
14 | GCTCCGGGGCAACCGTCTTCCCGGTCCACCACATCCTCGGCGGAGTCACCTAGTGCAG | 8200 fluorescence intensity (a.u.)
15 | TTTTTTTTTCTTTTTTCTTTTTTCTATGTGTATTTATAATCGGAGTCACCTAGTGCAG | 9350 fluorescence intensity (a.u.)
16 | CTTTCTTTATTCTTCTTTTTTTTTTCCCACGCTGTCTAACCGGAGTCACCTAGTGCAG | 11300 fluorescence intensity (a.u.)
17 | CTCTAATGGTTTTTTCATTTTACACGCTCGTACTTAATCTCGGAGTCACCTAGTGCAG | 8500 fluorescence intensity (a.u.)
18 | ACCCTGCGGATTAACAGAGTAAACTGCAACAAACCACGCGCGGAGTCACCTAGTGCAG | 8090 fluorescence intensity (a.u.)
19 | TTTTTCCTGCCCGGTTTTTTTGCCCGATTCTTTTTTTTGACGGAGTCACCTAGTGCAG | 15200 fluorescence intensity (a.u.)
20 | ACCTAACATAGTTTGACTCATCTGCTGGTCAAACCTATCGCGGAGTCACCTAGTGCAG | 10000 fluorescence intensity (a.u.)
21 | ATTATTATTGTTGCTAATTAATATGTTGTTTTACAGCAATCGGAGTCACCTAGTGCAG | 8960 fluorescence intensity (a.u.)

A different layout for some results above.
CTTTCTTTATTCTTCTTTTTTTTTTCCCACGCTGTCTAACCGGAGTCACCTAGTGCAG
  binding signal = 11300 fluorescence intensity (a.u.)
ACCCTGCGGATTAACAGAGTAAACTGCAACAAACCACGCGCGGAGTCACCTAGTGCAG
  binding signal = 8090 fluorescence intensity (a.u.)

(continued)

Row | Sequence | binding signal
22 | GGTATTTTAGGCTTTTTTTTAACATCGTTAAATGTCCTTACGGAGTCACCTAGTGCAG | 8310 fluorescence intensity (a.u.)
23 | ACTATAGCCCATTCCGAAGTCTATCGCTATCCACTTCGTCCGGAGTCACCTAGTGCAG | 8540 fluorescence intensity (a.u.)
24 | GTCCCTGTCCCCAGCCGCGCCGGCACCTCATCGCCGACCCCGGAGTCACCTAGTGCAG | 9250 fluorescence intensity (a.u.)
25 | GCGTGCACTCCCGTCCTGTTGTCGTGCCGTCTCCAGTCCCCGGAGTCACCTAGTGCAG | 10900 fluorescence intensity (a.u.)
26 | TTGGACTCTTTCTCTCTCATTCCACTTCTTGCTCGCCGCCCGGAGTCACCTAGTGCAG | 11800 fluorescence intensity (a.u.)
27 | CTCTTATTTATGTAATTAGTTTTATAAGTTGCCTATGTTTCGGAGTCACCTAGTGCAG | 8450 fluorescence intensity (a.u.)
28 | GGTCGCTTGCTTCTTTTGGTGGGGTGCCGGGATTCCCCTCCGGAGTCACCTAGTGCAG | 11900 fluorescence intensity (a.u.)
29 | ATTCAATTATGGTTTGGTTGGTTAGCACTGGAATCTTTACCGGAGTCACCTAGTGCAG | 8330 fluorescence intensity (a.u.)
30 | ATGGTGTTGTTTCTGAATTTCTGGTGTGAATAAAGCTCTTCGGAGTCACCTAGTGCAG | 10600 fluorescence intensity (a.u.)
31 | ACAAATGTAGTATTACTCTCTCCGTCCCATAATATAAATACGGAGTCACCTAGTGCAG | 9230 fluorescence intensity (a.u.)
32 | TCTCTCTCTCTCTCTCTCTCTTCTCTCTCCAGTCCAATCTCGGAGTCACCTAGTGCAG | 8140 fluorescence intensity (a.u.)
33 | GCACGAACGACGGCCACCGCCATGCCCACTGTTCATCTCCCGGAGTCACCTAGTGCAG | 8730 fluorescence intensity (a.u.)
34 | GCCCGGCAGCCACACAGTCCGCCCGCCACCCTTAAAATCCCGGAGTCACCTAGTGCAG | 8300 fluorescence intensity (a.u.)
35 | CTCTTGCTCCTTGAAGGTGTACACTAGTTCTGCTGCTCTCCGGAGTCACCTAGTGCAG | 8620 fluorescence intensity (a.u.)
36 | CAGCTTTGGTCAAGAACTATGCCAATTGTAACAGCATTTCCGGAGTCACCTAGTGCAG | 10200 fluorescence intensity (a.u.)
37 | AAGGGTCATCGGGTGGTCCCCACATGTCATACAGATAATACGGAGTCACCTAGTGCAG | 8600 fluorescence intensity (a.u.)
38 | CAACGGCGGTGGCGGCGGCGGCGGCGGCGGGGCGGCGTCGCGGAGTCACCTAGTGCAG | 8370 fluorescence intensity (a.u.)
39 | GTCATTTTGGACTCACCTTTGTCACTTGGCGCCTCTTTCACGGAGTCACCTAGTGCAG | 10700 fluorescence intensity (a.u.)
40 | CTCACCGAGACTAGCCGTTGCCTCGCGGCCATCGCCTTTCCGGAGTCACCTAGTGCAG | 8630 fluorescence intensity (a.u.)
41 | CGTGTTCTTGCCTGCGTATATACGGTGTACGTACACACGTCGGAGTCACCTAGTGCAG | 8870 fluorescence intensity (a.u.)
42 | CACACACAAACTTTCAACTTTTCCGTCACGTCGTTCCAATCGGAGTCACCTAGTGCAG | 12900 fluorescence intensity (a.u.)
